Patent US9517222B2, “Method for the treatment of senile dementia of the Alzheimer's type” (Phenomenome Discoveries Inc., priority 2007, dated 2016)
A unit is not stated for every read-out.

What was measured:
[1] = Serum ethanolamine phospholipid levels in human cohorts (dementia severity, post-mortem pathology, age) by flow-injection MS/MS
[2] = Serum ethanolamine phospholipid ratios to PtdEt 16:0/18:0 (M01) in human cohorts
[3] = serum, females, post mortem SDAT
[4] = serum, females, post mortem control

SMILES: CCCCCCCCCCCCCCCCCC(=O)O[C@H](COC(=O)CCCCCCCCCCCCCCC)COP(=O)(O)OCCN [Metabolite M01, PtdEt 16:0/18:0]
- Ratio of serum levels ([1]; AD, All to CN, Male): 1.028
- Ratio of serum levels ([1]; ADAS 5-19 to CN, Male): 1.011
- Ratio of serum levels ([1]; ADAS 20-39 to 5-19, Male): 1.005
- Ratio of serum levels ([1]; ADAS 20-39 to CN, Male): 1.016
- Ratio of serum levels ([1]; ADAS 40-70 to 5-19, Male): 1.003
- Ratio of serum levels ([1]; ADAS 40-70 to 20-39, Male): 0.998
- Ratio of serum levels ([1]; ADAS 40-70 to CN, Male): 1.014
- Serum level, Mean ([1]; Cognitive Normal, Female): 0.118
- Average serum level, Mean ([1]; Cognitive Normal, Male): 0.116
- Serum level, Mean ([1]; Post Mortem Ctl, Male): 0.127
- Serum level, Mean ([1]; Post Mortem SDAT Male): 0.089
- Ratio of serum levels ([1]; Post mortem SDAT vs Control, Male): 0.702
- Serum level, Mean ([1]; SDAT, ADAS 5-19, Female): 0.109
- Average serum level, Mean ([1]; SDAT, ADAS 5-19, Male): 0.117
- Serum level, Mean ([1]; SDAT, ADAS 20-39, Female): 0.112
- Average serum level, Mean ([1]; SDAT, ADAS 20-39, Male): 0.117
- Serum level, Mean ([1]; SDAT, ADAS 40-70, Female): 0.118
- Average serum level, Mean ([1]; SDAT, ADAS 40-70, Male): 0.117
- Serum level, Mean ([1]; SDAT_all, Female): 0.113
- Average serum level, Mean ([1]; SDAT_all, Male): 0.119
- Ratio, ADAS 5-19 to CN, Female ([1]; serum level ratio, females, ADAS 5-19 vs CN): 0.929
- Ratio, ADAS 20-39 to 5-19, Female ([1]; serum level ratio, females, ADAS 20-39 vs ADAS 5-19): 1.023
- Ratio, ADAS 20-39 to CN, Female ([1]; serum level ratio, females, ADAS 20-39 vs CN): 0.951
- Ratio, ADAS 40-70 to 5-19, Female ([1]; serum level ratio, females, ADAS 40-70 vs ADAS 5-19): 1.080
- Ratio, ADAS 40-70 to 20-39, Female ([1]; serum level ratio, females, ADAS 40-70 vs ADAS 20-39): 1.056
- Ratio, ADAS 40-70 to CN, Female ([1]; serum level ratio, females, ADAS 40-70 vs CN): 1.004
- Ratio, 50-59 vs. 40-49, Female ([1]; serum level ratio, females, age 50-59 vs 40-49): 0.925
- Ratio, 60-69 vs. 40-49, Female ([1]; serum level ratio, females, age 60-69 vs 40-49): 1.118
- Ratio, 70+ vs. 40-49, Female ([1]; serum level ratio, females, age 70+ vs 40-49): 1.110
- Ratio, AD, All to CN, Female ([1]; serum level ratio, females, all AD vs cognitively normal): 0.963
- Ratio, Autopsy AD vs. Control, Female ([1]; serum level ratio, females, autopsy AD vs control): 0.697
- Ratio, 50-59 vs. 40-49, Male ([1]; serum level ratio, males, age 50-59 vs 40-49): 0.955
- Ratio, 60-69 vs. 40-49, Male ([1]; serum level ratio, males, age 60-69 vs 40-49): 1.110
- Ratio, 70+ vs. 40-49, Male ([1]; serum level ratio, males, age 70+ vs 40-49): 1.097
- Mean serum level, Age Ctl, 30-39, Female ([1]; serum, females, age 30-39): 0.103
- Mean serum level, Age Ctl, 40-49, Female ([1]; serum, females, age 40-49): 0.114
- Mean serum level, Age Ctl, 50-59, Female ([1]; serum, females, age 50-59): 0.105
- Mean serum level, Age Ctl, 60-69, Female ([1]; serum, females, age 60-69): 0.127
- Mean serum level, Age Ctl, 70+, Female ([1]; serum, females, age 70+): 0.126
- Mean serum level, Post Mortem SDAT, Female [1, 3]: 0.124
- Mean serum level, Post Mortem Ctl, Female [1, 4]: 0.179
- Mean serum level, Age Ctl, 30-39, Male ([1]; serum, males, age 30-39): 0.122
- Mean serum level, Age Ctl, 40-49, Male ([1]; serum, males, age 40-49): 0.119
- Mean serum level, Age Ctl, 50-59, Male ([1]; serum, males, age 50-59): 0.113
- Mean serum level, Age Ctl, 60-69, Male ([1]; serum, males, age 60-69): 0.132
- Mean serum level, Age Ctl, 70+, Male ([1]; serum, males, age 70+): 0.130
- Ratio of ethanolamine phospholipid ratios to M01 between cohorts ([2]; AD, All to CN, Male): 1.000
- Ratio of ethanolamine phospholipid ratios to M01 between cohorts ([2]; ADAS 5-19 to CN, Male): 1.000
- Ratio of ethanolamine phospholipid ratios to M01 between cohorts ([2]; ADAS 20-39 to CN, Male): 1.000
- Ratio of ethanolamine phospholipid ratios to M01 between cohorts ([2]; ADAS 40-70 to CN, Male): 1.000
- Average serum ethanolamine phospholipid ratio to M01, Mean ([2]; Cognitive Normal, Male, serum): 1.000
- Average serum ethanolamine phospholipid ratio to M01, Mean ([2]; SDAT, ADAS 5-19, Male, serum): 1.000
- Average serum ethanolamine phospholipid ratio to M01, Mean ([2]; SDAT, ADAS 20-39, Male, serum): 1.000
- Average serum ethanolamine phospholipid ratio to M01, Mean ([2]; SDAT, ADAS 40-70, Male, serum): 1.000
- Average serum ethanolamine phospholipid ratio to M01, Mean ([2]; SDAT_all, Male, serum): 1.000
- Ethanolamine Phospholipid Ratio to M01, Mean, Age Ctl, 30-39, Female ([2]; human serum, females aged 30-39): 1.000
- Ethanolamine Phospholipid Ratio to M01, Mean, Age Ctl, 40-49, Female ([2]; human serum, females aged 40-49): 1.000
- Ethanolamine Phospholipid Ratio to M01, Mean, Age Ctl, 50-59, Female ([2]; human serum, females aged 50-59): 1.000
- Ratio of Ethanolamine Phospholipid Ratio to M01, 50-59 vs. 40-49, Female ([2]; human serum, females aged 50-59 vs. females aged 40-49): 1.000
- Ethanolamine Phospholipid Ratio to M01, Mean, Age Ctl, 60-69, Female ([2]; human serum, females aged 60-69): 1.000
- Ratio of Ethanolamine Phospholipid Ratio to M01, 60-69 vs. 40-49, Female ([2]; human serum, females aged 60-69 vs. females aged 40-49): 1.000
- Ethanolamine Phospholipid Ratio to M01, Mean, Age Ctl, 70+_Female ([2]; human serum, females aged 70+): 1.000
- Ratio of Ethanolamine Phospholipid Ratio to M01, 70+ vs. 40-49, Female ([2]; human serum, females aged 70+ vs. females aged 40-49): 1.000
- Ratio of Ethanolamine Phospholipid Ratio to M01, 50-59 vs. 40-49, Male ([2]; human serum, males aged 50-59 vs. males aged 40-49): 1.000
- Ratio of Ethanolamine Phospholipid Ratio to M01, 60-69 vs. 40-49, Male ([2]; human serum, males aged 60-69 vs. males aged 40-49): 1.000
- Ratio of Ethanolamine Phospholipid Ratio to M01, 70+ vs. 40-49, Male ([2]; human serum, males aged 70+ vs. males aged 40-49): 1.000
- Ratio of ethanolamine phospholipid ratio to M01, ADAS 5-19 to CN, Female ([2]; serum, females, ADAS 5-19 vs cognitive normal): 1.000
- Ratio of ethanolamine phospholipid ratio to M01, ADAS 20-39 to 5-19, Female ([2]; serum, females, ADAS 20-39 vs ADAS 5-19): 1.000
- Ratio of ethanolamine phospholipid ratio to M01, ADAS 20-39 to CN, Female ([2]; serum, females, ADAS 20-39 vs cognitive normal): 1.000
- Ratio of ethanolamine phospholipid ratio to M01, ADAS 40-70 to 5-19, Female ([2]; serum, females, ADAS 40-70 vs ADAS 5-19): 1.000
- Ratio of ethanolamine phospholipid ratio to M01, ADAS 40-70 to 20-39, Female ([2]; serum, females, ADAS 40-70 vs ADAS 20-39): 1.000
- Ratio of ethanolamine phospholipid ratio to M01, ADAS 40-70 to CN, Female ([2]; serum, females, ADAS 40-70 vs cognitive normal): 1.000
- Ethanolamine phospholipid ratio to M01, Mean, SDAT, ADAS 5-19, Female ([2]; serum, females, SDAT ADAS 5-19): 1.000
- Ethanolamine phospholipid ratio to M01, Mean, SDAT, ADAS 20-39, Female ([2]; serum, females, SDAT ADAS 20-39): 1.000
- Ethanolamine phospholipid ratio to M01, Mean, SDAT, ADAS 40-70, Female ([2]; serum, females, SDAT ADAS 40-70): 1.000
- Ratio of ethanolamine phospholipid ratio to M01, AD, All to CN, Female ([2]; serum, females, all AD vs cognitive normal): 1.000
- Ethanolamine phospholipid ratio to M01, Mean, SDAT_all Female ([2]; serum, females, all SDAT): 1.000
- Ratio of ethanolamine phospholipid ratio to M01, Autopsy AD vs. Control, Female ([2]; serum, females, autopsy AD vs post mortem control): 1.000
- Ethanolamine phospholipid ratio to M01, Mean, Cognitive Normal, Female ([2]; serum, females, cognitive normal): 1.000
- Ethanolamine phospholipid ratio to M01, Mean, Post Mortem SDAT Female [2, 3]: 1.000
- Ethanolamine phospholipid ratio to M01, Mean, Post Mortem Ctl, Female [2, 4]: 1.000
- Ratio of ethanolamine phospholipid ratio to M01, ADAS 20-39 to 5-19, Male ([2]; serum, males, SDAT ADAS 20-39 vs ADAS 5-19): 1.000
- Ratio of ethanolamine phospholipid ratio to M01, ADAS 40-70 to 5-19, Male ([2]; serum, males, SDAT ADAS 40-70 vs ADAS 5-19): 1.000
- Ratio of ethanolamine phospholipid ratio to M01, ADAS 40-70 to 20-39, Male ([2]; serum, males, SDAT ADAS 40-70 vs ADAS 20-39): 1.000
- Ethanolamine phospholipid ratio to M01, Mean, Age Ctl, 30-39, Male ([2]; serum, males, age control 30-39): 1.000
- Ethanolamine phospholipid ratio to M01, Mean, Age Ctl, 40-49, Male ([2]; serum, males, age control 40-49): 1.000
- Ethanolamine phospholipid ratio to M01, Mean, Age Ctl, 50-59, Male ([2]; serum, males, age control 50-59): 1.000
- Ethanolamine phospholipid ratio to M01, Mean, Age Ctl, 60-69, Male ([2]; serum, males, age control 60-69): 1.000
- Ethanolamine phospholipid ratio to M01, Mean, Age Ctl, 70+_Male ([2]; serum, males, age control 70+): 1.000
- Ethanolamine phospholipid ratio to M01, Mean, Post Mortem SDAT Male ([2]; serum, males, post mortem SDAT): 1.000
- Ratio of ethanolamine phospholipid ratio to M01, SDAT vs Control (post mortem, males) ([2]; serum, males, post mortem SDAT vs post mortem control): 1.000
- Ethanolamine phospholipid ratio to M01, Mean, Post Mortem Ctl, Male ([2]; serum, males, post mortem control): 1.000
